In PMC5813253 one finds binding data, which are given here for 1 substance.

Chains of the proteins cited; added tags and fusions are not shown.
UniProt P72350: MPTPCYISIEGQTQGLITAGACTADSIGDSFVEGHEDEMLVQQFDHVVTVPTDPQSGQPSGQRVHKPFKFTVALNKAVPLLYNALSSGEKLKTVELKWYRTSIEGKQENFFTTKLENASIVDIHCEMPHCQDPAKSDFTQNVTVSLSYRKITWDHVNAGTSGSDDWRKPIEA

No constants are given. Whether binding was seen depends on the method and setting. Some results given as binding are weak or reduced against the parent protein; the word gives no strength.

The assay addresses Hcp (V. cholerae) (UniProt P72350). Put plainly: cryo-EM structure.

Turning to Hcp (from UniProt P72350 1-172), the binding result is “binds”.
